This passage reports binding results from PMC5466977.

The chains behind the UniProt entries cited, without tags or fusion partners.
UniProt P22251: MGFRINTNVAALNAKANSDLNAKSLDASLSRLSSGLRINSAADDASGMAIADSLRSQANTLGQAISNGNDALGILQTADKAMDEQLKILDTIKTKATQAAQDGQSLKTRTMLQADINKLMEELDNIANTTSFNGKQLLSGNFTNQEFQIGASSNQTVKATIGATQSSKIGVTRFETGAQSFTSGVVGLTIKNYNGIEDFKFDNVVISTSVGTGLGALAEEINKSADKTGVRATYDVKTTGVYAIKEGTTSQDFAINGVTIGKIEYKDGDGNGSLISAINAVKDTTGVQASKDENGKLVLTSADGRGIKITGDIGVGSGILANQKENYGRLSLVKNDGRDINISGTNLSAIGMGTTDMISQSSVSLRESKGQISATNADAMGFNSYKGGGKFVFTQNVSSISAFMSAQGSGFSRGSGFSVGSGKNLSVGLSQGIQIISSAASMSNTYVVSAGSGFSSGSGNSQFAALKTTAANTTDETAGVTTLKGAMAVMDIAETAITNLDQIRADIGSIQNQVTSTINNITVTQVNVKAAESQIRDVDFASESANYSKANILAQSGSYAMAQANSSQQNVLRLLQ
UniProt P22252: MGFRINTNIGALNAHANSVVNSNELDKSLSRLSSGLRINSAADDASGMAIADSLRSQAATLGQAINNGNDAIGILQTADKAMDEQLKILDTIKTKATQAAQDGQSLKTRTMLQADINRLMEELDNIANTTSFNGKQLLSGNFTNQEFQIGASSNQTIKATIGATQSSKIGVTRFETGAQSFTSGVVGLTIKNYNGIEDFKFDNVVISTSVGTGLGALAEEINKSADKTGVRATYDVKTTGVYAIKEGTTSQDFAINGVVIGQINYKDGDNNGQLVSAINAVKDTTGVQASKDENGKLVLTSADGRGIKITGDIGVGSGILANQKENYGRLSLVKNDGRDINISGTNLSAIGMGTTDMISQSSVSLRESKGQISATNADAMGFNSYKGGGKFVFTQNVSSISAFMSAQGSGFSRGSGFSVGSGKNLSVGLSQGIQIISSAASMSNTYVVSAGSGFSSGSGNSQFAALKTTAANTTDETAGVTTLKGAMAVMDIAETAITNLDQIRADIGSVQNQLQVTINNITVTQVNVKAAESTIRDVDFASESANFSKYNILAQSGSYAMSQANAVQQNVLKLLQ

Common to all, as to experiment: far-Western, overlay or dot blot; 500 ng of total cell lysates of induced E. coli BL21 Star (DE3) expressing the His-tagged proteins (5 μg, 10x concentrated, for FlaAΔND0 and FlaAΔND1) separated by SDS-PAGE, on nitrocellulose; probed with 50 μg of purified GST-FliS, GST-FliW or GST in 2% skim milk TBS-T; anti-GST detection; only the binder purified
Experiment [1] deals with T1, His-tagged RacR protein of C. jejuni (C. jejuni) (UniProt O68795).
T1 sequence: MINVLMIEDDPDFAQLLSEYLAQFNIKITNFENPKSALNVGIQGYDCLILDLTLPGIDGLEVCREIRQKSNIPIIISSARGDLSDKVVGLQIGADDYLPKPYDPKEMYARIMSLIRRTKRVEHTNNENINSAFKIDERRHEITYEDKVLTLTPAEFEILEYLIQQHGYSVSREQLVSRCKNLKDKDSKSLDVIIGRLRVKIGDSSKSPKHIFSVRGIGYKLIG

Experiment [2] addresses recombinant His-tagged FlaA flagellin of C. jejuni (non-glycosylated, E. coli-derived) (C. jejuni) (UniProt P22251).
The target of experiment [3] is recombinant His-tagged FlaB flagellin of C. jejuni (C. jejuni) (UniProt P22252).

No constants are given. Whether binding was seen depends on the method and setting. Some binding calls cover weakened binding; strength is not graded here. Tags and fused reporters may be left off the sequences shown.

B1: GST-tagged FliS of C. jejuni (protein, UniProt P0DPD3 1-128)
chain: MQNNLAYNAYSQNQAGIESPQKLIEMLYEGILRFCARAKVAIRNEDIEQRVYFVKRTTAIFIELINTLDYEKGGEVAHYLSGLYTREIQLLSLANLENNEDRINEVINVTKGLLEAWREVHNNETVAQ
As for B1, the binding entry was “no binding (tested: 50 μg of probe)” in experiment [1], “binds” in experiment [2] and “binds” in experiment [3].
